We go through two substances from PMC8460406 (European Journal of Nuclear Medicine and Molecular Imaging, 2021).

The nature of data set [1]: general procedure: Fmoc solid-phase peptide synthesis; 2-chlorotrityl resin (CC11006 by Carbolution). The following applies: conjugation step.
A short description of data set [2]: general procedure: Fmoc solid-phase peptide synthesis; 2-chlorotrityl resin. To be noted: whole synthesis, of theoretical yield.

As to “TRAP(Tyr2)3, trimer of c[YRGDLAYp(NMe)K(pentynoic amide)] on TRAP chelator core”, the conjugation yield in data set [1] was 36%. On to c[YRGDLAYp(NMe)K], for which the isolated yield entry in data set [2] is given as “≈ 20%”.
